Drawing on doi:10.1101/2024.06.13.598886, this text covers binding for five molecules.

The chains behind the UniProt entries cited, without tags or fusion partners. Residues count along the entry.
UniProt P07996, residues 19-1170: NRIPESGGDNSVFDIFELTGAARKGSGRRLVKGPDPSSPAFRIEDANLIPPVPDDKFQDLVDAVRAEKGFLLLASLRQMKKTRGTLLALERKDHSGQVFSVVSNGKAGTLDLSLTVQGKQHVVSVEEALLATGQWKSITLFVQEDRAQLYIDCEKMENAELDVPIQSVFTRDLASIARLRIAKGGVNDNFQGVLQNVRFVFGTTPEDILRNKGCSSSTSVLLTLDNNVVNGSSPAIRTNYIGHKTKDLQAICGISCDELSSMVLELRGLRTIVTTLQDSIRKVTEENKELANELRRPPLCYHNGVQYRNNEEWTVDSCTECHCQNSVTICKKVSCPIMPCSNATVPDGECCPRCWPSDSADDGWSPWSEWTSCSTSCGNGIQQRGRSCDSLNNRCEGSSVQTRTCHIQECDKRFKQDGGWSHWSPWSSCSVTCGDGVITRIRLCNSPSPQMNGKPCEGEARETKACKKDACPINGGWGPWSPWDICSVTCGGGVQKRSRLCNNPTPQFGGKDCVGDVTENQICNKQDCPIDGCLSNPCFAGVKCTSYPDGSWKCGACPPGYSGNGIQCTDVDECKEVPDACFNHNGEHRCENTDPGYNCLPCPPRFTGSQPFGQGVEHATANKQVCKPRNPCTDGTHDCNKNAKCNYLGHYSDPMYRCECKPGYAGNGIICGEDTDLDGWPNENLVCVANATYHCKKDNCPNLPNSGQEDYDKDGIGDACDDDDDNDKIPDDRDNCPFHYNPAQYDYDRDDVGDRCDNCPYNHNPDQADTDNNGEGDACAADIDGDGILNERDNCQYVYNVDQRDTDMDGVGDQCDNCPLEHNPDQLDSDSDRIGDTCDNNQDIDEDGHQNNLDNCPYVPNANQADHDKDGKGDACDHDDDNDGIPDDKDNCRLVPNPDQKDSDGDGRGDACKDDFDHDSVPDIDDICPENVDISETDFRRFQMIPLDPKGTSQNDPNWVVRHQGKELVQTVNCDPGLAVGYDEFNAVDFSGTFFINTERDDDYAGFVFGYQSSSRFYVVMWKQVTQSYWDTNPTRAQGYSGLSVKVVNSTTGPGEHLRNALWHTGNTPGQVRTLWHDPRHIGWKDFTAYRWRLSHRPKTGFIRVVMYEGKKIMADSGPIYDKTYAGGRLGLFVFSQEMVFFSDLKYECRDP
UniProt O43795: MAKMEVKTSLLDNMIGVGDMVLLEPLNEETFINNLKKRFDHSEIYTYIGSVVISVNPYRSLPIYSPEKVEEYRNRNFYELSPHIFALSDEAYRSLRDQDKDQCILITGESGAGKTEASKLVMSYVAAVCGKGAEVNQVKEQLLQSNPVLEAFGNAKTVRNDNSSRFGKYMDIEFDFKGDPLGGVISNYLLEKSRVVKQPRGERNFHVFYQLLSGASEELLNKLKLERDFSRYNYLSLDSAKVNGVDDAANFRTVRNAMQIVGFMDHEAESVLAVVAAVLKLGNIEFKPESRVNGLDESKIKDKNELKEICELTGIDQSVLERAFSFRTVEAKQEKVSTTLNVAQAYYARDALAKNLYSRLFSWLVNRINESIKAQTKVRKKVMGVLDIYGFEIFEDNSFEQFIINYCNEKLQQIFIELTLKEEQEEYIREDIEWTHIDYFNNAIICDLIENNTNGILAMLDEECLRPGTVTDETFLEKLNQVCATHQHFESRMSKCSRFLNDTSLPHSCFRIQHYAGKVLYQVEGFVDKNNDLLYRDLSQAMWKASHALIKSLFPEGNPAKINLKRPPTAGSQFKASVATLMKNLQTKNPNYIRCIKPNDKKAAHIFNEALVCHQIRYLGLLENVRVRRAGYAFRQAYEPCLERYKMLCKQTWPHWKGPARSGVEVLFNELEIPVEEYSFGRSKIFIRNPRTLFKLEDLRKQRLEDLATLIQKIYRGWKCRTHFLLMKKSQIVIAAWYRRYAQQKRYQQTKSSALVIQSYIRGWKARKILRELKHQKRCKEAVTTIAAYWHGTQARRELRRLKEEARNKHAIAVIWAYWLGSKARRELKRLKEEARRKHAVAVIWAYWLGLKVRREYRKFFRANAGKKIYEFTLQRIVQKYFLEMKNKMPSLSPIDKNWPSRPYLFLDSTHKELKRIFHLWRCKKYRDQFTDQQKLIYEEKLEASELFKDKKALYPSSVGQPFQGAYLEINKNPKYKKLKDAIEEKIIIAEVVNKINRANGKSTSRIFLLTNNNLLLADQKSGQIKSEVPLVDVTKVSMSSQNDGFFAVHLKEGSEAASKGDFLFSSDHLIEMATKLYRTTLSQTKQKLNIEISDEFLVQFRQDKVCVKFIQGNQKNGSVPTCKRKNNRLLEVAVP
UniProt P19525: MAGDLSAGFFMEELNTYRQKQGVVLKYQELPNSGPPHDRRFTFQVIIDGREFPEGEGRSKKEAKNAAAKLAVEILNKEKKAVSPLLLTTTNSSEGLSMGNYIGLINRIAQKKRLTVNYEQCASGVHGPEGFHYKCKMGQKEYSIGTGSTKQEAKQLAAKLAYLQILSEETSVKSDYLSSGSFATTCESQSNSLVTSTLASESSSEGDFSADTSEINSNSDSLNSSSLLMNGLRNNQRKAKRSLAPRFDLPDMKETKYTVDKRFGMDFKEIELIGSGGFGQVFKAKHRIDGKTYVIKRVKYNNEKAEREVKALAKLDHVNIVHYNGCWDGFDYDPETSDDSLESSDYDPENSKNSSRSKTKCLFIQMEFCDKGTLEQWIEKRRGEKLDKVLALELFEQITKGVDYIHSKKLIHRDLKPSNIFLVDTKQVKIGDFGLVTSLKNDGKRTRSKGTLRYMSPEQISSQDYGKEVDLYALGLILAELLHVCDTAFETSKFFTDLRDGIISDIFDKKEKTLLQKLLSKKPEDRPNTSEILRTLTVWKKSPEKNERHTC

Results are given in words; binding and its absence hold for the method and conditions named. In cells and extracts the contact can be indirect. These calls come from enrichment with a bait or labelling near it, and not all partners need be listed. Sequences can lack the tags named with a protein.

The target in the experiment is T1, PTPRH WT-BioID2-HA (human) (UniProt Q9HD43).
T1 sequence: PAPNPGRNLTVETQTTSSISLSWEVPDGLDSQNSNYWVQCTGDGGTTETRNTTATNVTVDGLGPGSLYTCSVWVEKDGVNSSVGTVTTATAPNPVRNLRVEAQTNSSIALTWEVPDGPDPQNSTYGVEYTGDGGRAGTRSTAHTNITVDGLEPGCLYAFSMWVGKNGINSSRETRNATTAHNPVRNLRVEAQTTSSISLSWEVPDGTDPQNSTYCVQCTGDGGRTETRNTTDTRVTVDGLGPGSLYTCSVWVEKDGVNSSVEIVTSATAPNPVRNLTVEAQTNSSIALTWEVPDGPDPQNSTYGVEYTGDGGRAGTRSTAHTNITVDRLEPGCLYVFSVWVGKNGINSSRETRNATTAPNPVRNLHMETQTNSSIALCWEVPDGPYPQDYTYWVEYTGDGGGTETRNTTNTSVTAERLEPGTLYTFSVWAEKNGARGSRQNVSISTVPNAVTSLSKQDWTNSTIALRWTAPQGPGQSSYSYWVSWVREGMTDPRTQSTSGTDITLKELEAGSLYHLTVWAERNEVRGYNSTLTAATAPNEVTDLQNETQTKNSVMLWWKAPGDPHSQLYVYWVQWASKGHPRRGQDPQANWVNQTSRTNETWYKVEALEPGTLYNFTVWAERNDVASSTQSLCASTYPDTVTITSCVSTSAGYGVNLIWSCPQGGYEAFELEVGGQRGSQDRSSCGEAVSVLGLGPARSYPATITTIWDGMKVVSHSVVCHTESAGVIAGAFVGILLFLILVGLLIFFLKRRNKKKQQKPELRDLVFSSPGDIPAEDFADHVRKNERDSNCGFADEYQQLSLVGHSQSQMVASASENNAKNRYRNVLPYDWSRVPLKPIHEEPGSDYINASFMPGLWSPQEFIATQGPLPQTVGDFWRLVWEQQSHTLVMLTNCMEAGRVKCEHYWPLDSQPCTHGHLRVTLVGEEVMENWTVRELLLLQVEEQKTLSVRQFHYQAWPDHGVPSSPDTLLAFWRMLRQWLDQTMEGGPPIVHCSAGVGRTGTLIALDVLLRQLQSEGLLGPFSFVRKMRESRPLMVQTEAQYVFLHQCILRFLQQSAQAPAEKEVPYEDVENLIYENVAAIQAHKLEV
Put plainly: proximity labelling.

As to “thrombospondin 1 (from UniProt P07996 19-1170)”, the binding result is listed as “binds”.
In the case of Myosin IB (from UniProt O43795 1-1136) it was “binds”; in that of “Eukaryotic Translation Initiation Factor 2 Alpha Kinase 2 (from UniProt P19525 1-551) (enzyme)”, “binds”.

B1: BRCA1 Associated Protein (protein, UniProt Q7Z569 1-592)
chain: MSVSLVVIRLELAEHSPVPAGFGFSAAAGEMSDEEIKKTTLASAVACLEGKSPGEKVAIIHQHLGRREMTDVIIETMKSNPDELKTTVEERKSSEASPTAQRSKDHSKECINAAPDSPSKQLPDQISFFSGNPSVEIVHGIMHLYKTNKMTSLKEDVRRSAMLCILTVPAAMTSHDLMKFVAPFNEVIEQMKIIRDSTPNQYMVLIKFRAQADADSFYMTCNGRQFNSIEDDVCQLVYVERAEVLKSEDGASLPVMDLTELPKCTVCLERMDESVNGILTTLCNHSFHSQCLQRWDDTTCPVCRYCQTPEPVEENKCFECGVQENLWICLICGHIGCGRYVSRHAYKHFEETQHTYAMQLTNHRVWDYAGDNYVHRLVASKTDGKIVQYECEGDTCQEEKIDALQLEYSYLLTSQLESQRIYWENKIVRIEKDTAEEINNMKTKFKETIEKCDNLEHKLNDLLKEKQSVERKCTQLNTKVAKLTNELKEEQEMNKCLRANQVLLQNKLKEEERVLKETCDQKDLQITEIQEQLRDVMFYLETQQKINHLPAETRQEIQEGQINIAMASASSPASSGGSGKLPSRKGRSKRGK
As for B1, the binding result is recorded as “binds”.

B2: CDK5 Regulatory Subunit Associated Protein 3 (protein, UniProt Q96JB5 1-506)
chain: MEDHQHVPIDIQTSKLLDWLVDRRHCSLKWQSLVLTIREKINAAIQDMPESEEIAQLLSGSYIHYFHCLRILDLLKGTEASTKNIFGRYSSQRMKDWQEIIALYEKDNTYLVELSSLLVRNVNYEIPSLKKQIAKCQQLQQEYSRKEEECQAGAAEMREQFYHSCKQYGITGENVRGELLALVKDLPSQLAEIGAAAQQSLGEAIDVYQASVGFVCESPTEQVLPMLRFVQKRGNSTVYEWRTGTEPSVVERPHLEELPEQVAEDAIDWGDFGVEAVSEGTDSGISAEAAGIDWGIFPESDSKDPGGDGIDWGDDAVALQITVLEAGTQAPEGVARGPDALTLLEYTETRNQFLDELMELEIFLAQRAVELSEEADVLSVSQFQLAPAILQGQTKEKMVTMVSVLEDLIGKLTSLQLQHLFMILASPRYVDRVTEFLQQKLKQSQLLALKKELMVQKQQEALEEQAALEPKLDLLLEKTKELQKLIEADISKRYSGRPVNLMGTSL
For B2, the binding result is “binds”.
